# Primary screen of a compound library

The chains behind the UniProt entries cited, without tags or fusion partners.
UniProt P9WFT3, whole entry: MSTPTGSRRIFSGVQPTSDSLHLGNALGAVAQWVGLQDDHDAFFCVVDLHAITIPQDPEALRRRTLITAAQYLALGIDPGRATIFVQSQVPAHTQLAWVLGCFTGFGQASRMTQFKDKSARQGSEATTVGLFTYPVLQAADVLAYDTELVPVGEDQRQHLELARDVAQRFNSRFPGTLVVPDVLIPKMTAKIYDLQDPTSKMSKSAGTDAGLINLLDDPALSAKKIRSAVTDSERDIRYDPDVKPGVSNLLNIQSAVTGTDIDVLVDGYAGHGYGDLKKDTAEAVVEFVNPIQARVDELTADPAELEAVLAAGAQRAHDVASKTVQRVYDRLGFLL
UniProt P9WPC5, whole entry: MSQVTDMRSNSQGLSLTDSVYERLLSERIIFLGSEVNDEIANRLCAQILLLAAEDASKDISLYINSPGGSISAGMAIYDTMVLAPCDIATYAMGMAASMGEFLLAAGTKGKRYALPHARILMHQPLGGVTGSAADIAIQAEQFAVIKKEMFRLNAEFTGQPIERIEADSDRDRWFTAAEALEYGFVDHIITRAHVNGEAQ
UniProt P9WPC3, whole entry partner: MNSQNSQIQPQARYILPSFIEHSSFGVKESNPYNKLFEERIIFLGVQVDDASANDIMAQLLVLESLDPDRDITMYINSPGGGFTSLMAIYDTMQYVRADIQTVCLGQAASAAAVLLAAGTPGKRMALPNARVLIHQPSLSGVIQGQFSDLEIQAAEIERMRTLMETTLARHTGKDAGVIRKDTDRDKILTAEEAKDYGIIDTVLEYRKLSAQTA
UniProt P9WNZ1, whole entry: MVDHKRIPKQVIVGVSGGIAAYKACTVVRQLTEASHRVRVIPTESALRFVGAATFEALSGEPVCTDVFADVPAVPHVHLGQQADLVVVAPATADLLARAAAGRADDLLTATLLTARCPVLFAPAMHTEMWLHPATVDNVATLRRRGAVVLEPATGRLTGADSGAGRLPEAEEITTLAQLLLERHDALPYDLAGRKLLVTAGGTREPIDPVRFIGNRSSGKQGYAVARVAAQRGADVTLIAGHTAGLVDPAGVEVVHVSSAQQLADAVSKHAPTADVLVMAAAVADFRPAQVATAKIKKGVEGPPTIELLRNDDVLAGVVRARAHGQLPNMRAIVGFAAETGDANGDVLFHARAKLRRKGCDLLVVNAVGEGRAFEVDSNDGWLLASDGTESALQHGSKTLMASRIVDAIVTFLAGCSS
UniProt I6X8D2, whole entry: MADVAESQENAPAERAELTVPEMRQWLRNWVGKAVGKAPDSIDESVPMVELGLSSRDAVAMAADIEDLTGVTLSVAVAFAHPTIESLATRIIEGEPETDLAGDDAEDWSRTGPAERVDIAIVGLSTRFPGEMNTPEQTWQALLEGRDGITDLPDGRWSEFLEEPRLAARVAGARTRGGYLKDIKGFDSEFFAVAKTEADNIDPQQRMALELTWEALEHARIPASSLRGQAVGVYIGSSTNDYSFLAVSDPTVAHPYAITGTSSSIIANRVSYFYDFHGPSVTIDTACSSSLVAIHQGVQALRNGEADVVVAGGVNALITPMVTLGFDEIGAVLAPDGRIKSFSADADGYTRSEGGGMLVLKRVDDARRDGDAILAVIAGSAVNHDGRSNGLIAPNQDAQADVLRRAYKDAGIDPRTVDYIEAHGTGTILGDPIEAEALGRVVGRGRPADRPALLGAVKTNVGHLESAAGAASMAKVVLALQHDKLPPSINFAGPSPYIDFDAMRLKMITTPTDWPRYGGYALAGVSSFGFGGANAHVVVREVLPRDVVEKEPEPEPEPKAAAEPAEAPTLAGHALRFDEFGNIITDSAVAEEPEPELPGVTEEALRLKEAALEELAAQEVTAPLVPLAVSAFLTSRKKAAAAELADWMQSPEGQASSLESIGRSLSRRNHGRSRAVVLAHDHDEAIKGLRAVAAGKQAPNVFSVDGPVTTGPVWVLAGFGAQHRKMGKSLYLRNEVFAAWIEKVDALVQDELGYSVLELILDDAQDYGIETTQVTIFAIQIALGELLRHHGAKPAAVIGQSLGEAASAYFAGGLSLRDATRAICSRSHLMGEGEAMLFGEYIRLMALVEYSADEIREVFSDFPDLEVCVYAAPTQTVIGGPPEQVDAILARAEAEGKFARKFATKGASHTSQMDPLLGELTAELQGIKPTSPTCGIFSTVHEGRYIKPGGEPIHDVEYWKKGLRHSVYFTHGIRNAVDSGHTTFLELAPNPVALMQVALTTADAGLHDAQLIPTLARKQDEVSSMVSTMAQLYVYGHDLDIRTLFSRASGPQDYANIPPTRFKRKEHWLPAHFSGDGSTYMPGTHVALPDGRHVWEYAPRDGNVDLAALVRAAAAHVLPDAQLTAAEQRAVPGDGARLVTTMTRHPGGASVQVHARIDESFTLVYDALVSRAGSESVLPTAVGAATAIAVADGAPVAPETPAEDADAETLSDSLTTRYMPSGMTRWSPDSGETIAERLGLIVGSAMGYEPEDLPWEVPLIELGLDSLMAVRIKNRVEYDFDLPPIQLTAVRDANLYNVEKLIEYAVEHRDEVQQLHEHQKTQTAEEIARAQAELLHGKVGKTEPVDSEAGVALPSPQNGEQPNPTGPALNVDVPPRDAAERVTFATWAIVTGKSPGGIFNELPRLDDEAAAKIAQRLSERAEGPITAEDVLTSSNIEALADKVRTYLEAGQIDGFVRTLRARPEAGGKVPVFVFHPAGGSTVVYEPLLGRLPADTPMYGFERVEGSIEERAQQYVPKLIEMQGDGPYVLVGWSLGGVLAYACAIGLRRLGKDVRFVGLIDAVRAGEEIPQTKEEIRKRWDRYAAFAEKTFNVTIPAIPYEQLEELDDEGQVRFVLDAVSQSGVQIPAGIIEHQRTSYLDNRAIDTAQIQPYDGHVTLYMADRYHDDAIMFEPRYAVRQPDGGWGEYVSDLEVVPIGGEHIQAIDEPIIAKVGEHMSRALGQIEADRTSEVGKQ

The values are deposited in ChEMBL (CHEMBL3988442, “University of Dundee, Small-Polar-MMV Screening Library” (2021)).

The filed quantity is “Percent Effect” (%). How 0% and 100% were set is not recorded. Most values in the screen are low, and negative values occur. Compounds were drawn at random from those tested, without regard to their results. A dash means the value is not listed here; it may have been measured.

MtTrpRS: 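Enzyme assay of tryptophanyl-tRNA synthetase; the read-out is not stated. Target: Tryptophan-tRNA ligase, Mycobacterium tuberculosis (UniProt P9WFT3). Concentration: 10 µM. Direction is not recorded; retested compounds ran higher, which suggests that high means inhibition. Of about 65,000 compounds tested this way, about 64 (0.098%) reached 50% or more in at least one test.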
Toxoplasma: 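Assay of Toxoplasma gondii numbers, read through their beta-galactosidase reporter with a colour substrate. Concentration: 10 µM. Higher reads as fewer parasites (inferred from which compounds were picked for retests). About 67,000 compounds were tested under these conditions; 0.38% (about 260) showed 50% or more at least once.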
ClpP1P2: 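Protease assay of ClpP1P2, read by the AMC dye that it sets free. Target: ClpP1P2, Mycobacterium tuberculosis (UniProt P9WPC5 and UniProt P9WPC3). Compounds at 50 µM. Direction is inferred from only a few compounds that gave an IC50; most scored high, so higher reads as stronger inhibition. Most other retested compounds had strongly negative values. Of about 69,000 compounds tested this way, about 10 (0.015%) reached 50% or more in at least one test.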
CoaBC: 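Enzyme assay of CoaBC with a phosphate dye (Biomol Green) read at 650 nm. Target: Coenzyme A biosynthesis protein CoaBC, Mycobacterium tuberculosis (UniProt P9WNZ1). Tested at 30 µM. Higher reads as stronger inhibition, judged from the few compounds that gave an IC50. Most strong results did not repeat in a second test. About 67,000 compounds were tested under these conditions; 0.06% (about 40) showed 50% or more at least once.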
Pks13 thioesterase: 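Enzyme assay of the thioesterase domain of polyketide synthase 13; the read-out is not stated. Target: Polyketide synthase Pks13, Mycobacterium tuberculosis (UniProt I6X8D2). Compounds at 30 µM. The record gives no direction; the compounds picked for IC50 retests had high values, so higher reads as stronger inhibition. Of about 67,000 compounds tested this way, about 300 (0.46%) reached 50% or more in at least one test.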

SMILES	MtTrpRS	Toxoplasma	ClpP1P2	CoaBC	Pks13 thioesterase
CN(C)Cc1nnc(C2CCCN(c3ncccc3F)C2)n1C (centres unmarked)	-1.302	-10.49	-1.654	1.863	-17.14
CS(=O)(=O)c1cncnc1C1CCCN(C(=O)NCc2ccccc2)C1 (centres unmarked)	-7.049	27.62	-10.32	-3.417	4.519
CCNc1cc2c(nn1)CCN(C(=O)C1CCc3ccccc31)C2 (centres unmarked)	-4.073	9.668	-7.007	4.082	-9.666
CCC(CNC(=O)OC)(OC)c1ccccc1 (centres unmarked)	0.076	15.7	-1.419	6.977	-18.8
CC(C)c1ccn(C2(C(=O)O)CCN(c3ccncc3F)CC2)n1	-5.491	2.684	0.05554	10.87	-21.09
COc1ccc(Cl)cc1NCC(=O)N(Cc1ccncc1)C1CC1	7.996	4.806	-1.01	-16.09	-3.999
Cn1ccnc1CN1CCC2(COCCN(S(=O)(=O)C3CC3)C2)C1 (centres unmarked)	-	-9.619	-1.616	3.758	3.426
CCc1nnc(C(C)N2CCCN(C(=O)Oc3ccccc3)CC2)o1 (centres unmarked)	-4.131	0.8547	8.118	8.502	-17.12
OCCNc1cc(N2CCC(n3cc(C4CCCC4)nn3)CC2)ncn1	3.484	-1.452	1.101	4.714	0.5359
CC(C)C[C@H](N)c1nnc(SCC(=O)Nc2ccc(Br)cc2)o1.Cl	-	4.221	-	-	-
O=C(CN1CCc2cncnc2C1)N1CCc2sccc2C1	5.56	12.12	-4.141	5.379	-15.21
O=C1COC2(CCN(c3ncccn3)CC2)CN1Cc1ccccn1	0.2513	-	16.88	4.034	-0.6807
Cc1ccc(C(N)c2cccc(S(C)(=O)=O)c2)c(C)c1 (centres unmarked)	-7.917	-	-14.25	17.5	-8.97
Br.O=C(CN(C1=NCCCC1)c1ccccc1)c1ccc2c(c1)OCCO2	-	9.137	-	-	-
O=C(NC1CCN(c2ccc(-c3ccccc3F)nn2)C1)C1CCC1 (centres unmarked)	-5.243	-1.287	-3.698	3.594	-2.788
COc1c(C(=O)N2CCOC(c3cccs3)C2)c(C)nn1C (centres unmarked)	-8.727	-2.841	1.269	-1.691	-10.61
Cc1nc2c(c(N3CCN(c4ncccc4C(N)=O)CC3)n1)CCNC2	-4.527	2.594	5.077	0.2058	-12.77
c1ccc(C(CC2CN(Cc3ncc[nH]3)CCO2)c2ccccc2)cc1 (centres unmarked)	-4.855	19.09	-14.33	11.36	-19.51
COC(CNC(=O)c1cn(C)nn1)c1ccccc1C (centres unmarked)	0.3943	4.408	-17.7	0.8783	0.9227
CCC(C(=O)NC1(C(N)=O)CCCC1)n1cccn1 (centres unmarked)	3.268	-44.1	-0.135	-0.9732	-3.185
CC(C)(C)OC(=O)N[C@@H]1C[C@@H](O)CN(C(=O)c2ccc(F)cc2)C[C@H]1O	-7.815	-0.2817	16.74	-6.748	-0.2395
Cc1nc(C(NC(=O)CC(F)(F)F)c2ccc(Cl)cc2)no1 (centres unmarked)	-2.319	-6.795	-2.948	4.925	-43.94
O=C(Cc1ccc(S(=O)(=O)C(F)F)cc1)N1CCCC1	-3.602	-2.817	-1.136	-6.723	-25.94
CN(C)[C@@H]1COC[C@@H]2CN(Cc3ccc4c(c3)OCO4)C[C@@H]21	-2.468	-	2.198	-10.83	-39.44
COC[C@@H]1CCCN1C(=O)CCc1c(C)nn(C)c1C	3.129	-17	-8.645	3.145	-13.26
COc1ncccc1NC(=O)NCC(O)c1ccc(F)cc1F (centres unmarked)	-2.047	-5.456	3.679	5.744	-7.793
O=C(NCCCO)Nc1cccc(Cl)c1F	1.896	2.094	-0.3558	9.705	-7.738
COc1cc(C(C)=O)ccc1SCC(=O)Nc1cc(C)n[nH]1	6.398	1.256	-1.68	-	-39.75
Cc1cccc(CN2C(=O)C[C@H]3[C@@H]2CCN3Cc2ccco2)n1	-2.488	-	-8.334	3.059	-23.11
COc1cc(C(=O)NS(=O)(=O)c2cccc(C#N)c2)ccc1C	-2.624	0.9693	9.208	7.083	-3.106
COc1ccc(C2Nc3ccccc3C3=NCCCN32)cc1OC (centres unmarked)	-3.7	2.274	-54.91	8.29	-22.05
Cc1cc(C)n2nc(C(=O)N3CCCC4(CNC(=O)O4)C3)cc2n1 (centres unmarked)	11.06	0.9512	-6.572	6.129	1.218
Cc1ccc(C(N)c2cccs2)cc1 (centres unmarked)	4.644	1.997	12.7	-	12.49
Cc1nnc(SCc2cc(=O)n3c4c(sc3n2)CCCC4)[nH]1	1.4	4.178	-13.04	3.269	-6.348
CC(=O)N1CCC(CCNC(C)c2cc(C)cc(C)c2)CC1 (centres unmarked)	9.538	-1.153	-13.09	-2.689	1.891
CC(C)Oc1ccccc1C1CC(=O)Nc2c1cnn2C (centres unmarked)	-0.7415	-0.8547	1.618	8.232	-32.52
Cc1nccn1-c1ccc(CNC(=O)c2ccc[nH]2)cn1	-0.9726	1.165	-6.573	-9.091	-25.58
CC(C)N1CCCC(CCCc2ccccn2)(C(=O)O)C1 (centres unmarked)	-0.7525	-0.1922	5.783	-0.5556	-40.31
O=C(O)C(F)(F)F.[H][C@@]12CCN(CC3CC3)[C@@]1([H])CCN2C(=O)c1ccc(F)cc1	-	-1.738	-	-	-
Cc1ncsc1CCN(C)Cc1cc2n(n1)CCN(Cc1ccco1)C2	-2.364	-6.585	2.062	2.174	-30.39
Cc1cc(N2CCN(C(=O)[C@@H]3C[C@@H]4C=C[C@H]3C4)CC2)cc(C)n1	4.083	-	6.999	4.602	-10.72
CS(=O)(=O)N1C[C@@H]2CC[C@H](C1)N(C(=O)CCn1cnc3ccccc31)C2	1.383	-	14.54	2.808	3.875
O=C(c1ccc(Cl)cc1)N1CCn2c(nn(-c3ccncc3)c2=O)C1	-7.692	5.97	6.003	1.579	-13.69
O=C1CC[C@H]2CN(Cc3cccc(F)c3)CC[C@H]2N1CCc1c[nH]cn1	-3.502	-	-21.36	0.8485	-22.1
CCc1nc(CN(C(C)=O)C2CCN(Cc3ccccc3F)C2)no1 (centres unmarked)	-2.751	-7.005	-0.6623	4.462	-18.19
O=C(CC1CCCC1)N1CCC2(CC1)[C@H](O)C[C@@H]2O	0.6571	3.83	-18.71	0.6337	-12.87
CCc1ccc(C2CC(=O)Nc3c2c(=O)[nH]n3C(C)C)cc1 (centres unmarked)	2.349	7.929	-7.691	1.788	-21.9
COc1ccc(CN2CC(O)CN(C(=O)C3CCC3)CC2=O)cc1 (centres unmarked)	-	-12.81	11.42	1.937	-17.28
CN(C)c1ncc(C(=O)N2C[C@H]3C[C@H](Oc4ccccc4)C[C@H]3C2)cn1	-2.995	-	-7.261	12.44	7.887
CN(Cc1ccncc1)C1CC2(CCN(Cc3ccccn3)CC2)C1	-5.16	-0.1428	6.526	1	3.274

The first 5 entries again:

SMILES,MtTrpRS,Toxoplasma,ClpP1P2,CoaBC,Pks13 thioesterase
CN(C)Cc1nnc(C2CCCN(c3ncccc3F)C2)n1C (centres unmarked),-1.302,-10.49,-1.654,1.863,-17.14
CS(=O)(=O)c1cncnc1C1CCCN(C(=O)NCc2ccccc2)C1 (centres unmarked),-7.049,27.62,-10.32,-3.417,4.519
CCNc1cc2c(nn1)CCN(C(=O)C1CCc3ccccc31)C2 (centres unmarked),-4.073,9.668,-7.007,4.082,-9.666
CCC(CNC(=O)OC)(OC)c1ccccc1 (centres unmarked),0.076,15.7,-1.419,6.977,-18.8
CC(C)c1ccn(C2(C(=O)O)CCN(c3ccncc3F)CC2)n1,-5.491,2.684,0.05554,10.87,-21.09